# Primary screen of a compound library

Mtb growth Cornell: 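Whole-cell assay for inhibitors of Mycobacterium tuberculosis growth, labelled Cornell in the record; the read-out is not stated. The concentration is filed as 10 mM, unlikely as a test dose, so the dose is not known. The record gives no direction; compounds strong in two other growth screens of this library score well above the rest, so higher reads as stronger inhibition. Size under these conditions: about 53,000 compounds, about 900 of them at 50% or above in at least one test.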
Mtb heat-shock: 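Assay on Mycobacterium tuberculosis, filed only as a heat shock assay from Cornell; the read-out is not stated. The concentration is filed as 10 mM, unlikely as a test dose, so the dose is not known. The record gives no direction; compounds that gave an IC50 in retests scored well above the rest, so higher reads as stronger inhibition. Of about 69,000 compounds tested this way, about 930 (1.4%) reached 50% or more in at least one test.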

Each number is a percent effect as filed. The record does not define 0% and 100%; most values in the screen are far below 50% and negative numbers occur (in some assays of this library far below -100). The compounds are a random part of those screened. A dash means the value is not listed here; it may have been measured.

structure | Mtb growth Cornell | Mtb heat-shock
Cc1cc(=O)[nH]cc1C(=O)N1CCN(C)c2ccccc2C1 | -1.823 | 3.275
COC(=O)Nc1nc2c(s1)CN(C(=O)NCc1cccs1)CC2 | 35.61 | 0.1955
COC(=O)COc1cccc(NS(=O)(=O)c2cc(C(=O)O)cs2)c1 | -1.017 | 21.91
CNC(=O)C1CCCCN1C(=O)c1n[nH]c(=O)c2ccccc12 (centres undefined) | - | -0.6475
CC(Cn1cccn1)NC(=O)Nc1ccccn1 (centres undefined) | - | -4.414
CN(C)C(=O)CN1CCN(c2cc(N3CCCC3CO)ncn2)CC1 (centres undefined) | 1.672 | -22.32
Cc1nc(NC(=O)NCc2nc3cccc(C)c3n2C)oc1C | -1.371 | 42.51
CN(Cc1cccnc1)CC1CC12CCN(Cc1nccs1)CC2 (centres undefined) | 0.8131 | -22.21
CCCC(NC(=O)c1cc(C)c(F)cc1F)c1nnn[nH]1 (centres undefined) | -42.03 | -24.84
CCOc1cc(=O)n2c(c1C(=O)OCc1ccc(F)cc1)CCCC2 | -7.255 | -17.99
CN(C(=O)NCCCN1CCCC1)C1CCN(c2ccccc2)C1=O (centres undefined) | - | 1.376
CCC(Nc1nc(C)nc2onc(C)c12)c1nc(C)c(C)s1 (centres undefined) | -10.03 | -29.11
CN1CC(C)(C)CN(C(=O)CCc2ccccc2)CC1=O | 11.79 | 21.51
CC(c1ncc(-c2ccccc2)o1)N1CCN(C(=O)N(C)C)CC1 (centres undefined) | 5.225 | -17.84
CN(Cc1noc(C2CC2)n1)C1CCN(CCc2cccs2)C1 (centres undefined) | - | 12.6
CCOC(C)C(=O)NCc1cccc(CN2CCCCCC2)c1 (centres undefined) | - | -2.726
O=C1NCCCc2[nH]c(Cc3cccc(F)c3)nc21 | 16.94 | 18.3
O=C(O)C(F)(F)F.O=C(O)C(F)(F)F.[H][C@@]12CN(C(=O)N(C)C)C[C@]1([H])OCCN2CCN(C)C | -23.27 | -29.88
CS(=O)(=O)Cc1nc(CN2CCc3ccccc3CC2)cs1 | -6.927 | -45.47
[H][C@@]12C[C@@H](O)CN1C[C@@H](Cc1ccccc1)N(CC1CCCCC1)C2 | -23.54 | -16.4
O=C(O)C(F)(F)F.[H][C@@]12CN(CC)C[C@]1(C(=O)N(C)C)CCC21CCN(C(=O)NC(C)C)CC1 | -23.31 | 6.537
Cc1cccc(C(=O)N2CCCN(Cc3cnn(C)c3)CC2)n1 | -6.307 | -11.51
[H][C@@]12CN(c3ccc(C)nn3)C[C@@H](C(=O)NC3CCC3)[C@]1([H])CCO2 | 7.936 | -0.6538
CC(=O)N1CCC2(CC1)CN(C(C)C)c1ccc(F)cc12 | 2.851 | -2.12
COC1CCCN(Cc2nc(Cc3ccccc3F)no2)C1 (centres undefined) | 28.92 | 2.675
O=C(Nc1cnn(CC(F)F)c1)c1cccc(-n2cnnn2)c1 | 34.58 | 6.943
COc1ccc(-n2cc(CNC(=O)c3cscn3)nn2)cc1 | 17.22 | -7.859
Cn1nccc1CN1CCOC(c2ccc(-c3cncnc3)cn2)C1 (centres undefined) | 46.69 | 0.59
COCCn1cnc(-c2nc(C(=O)N3CCOCC3)c3ccccn23)c1 | -3.507 | -33.36
Cc1cc2n(n1)CC(CNCc1ccccc1Cn1cccn1)CN2 (centres undefined) | - | 4.423
CC1CCN(c2ncc3c(n2)CN(Cc2cccc(F)c2)C3=O)CC1 | - | -20.85
CC(=O)N1CCC2(CC1)C(=O)N(CC1CC1)c1ccccc12 | -2.066 | -29.36
O=C(O)C(F)(F)F.[H][C@@]12COC[C@]1(COCC1CCCC1)CN(c1ncccn1)C2 | 53.05 | -5.408
O=S(=O)(NCCc1nc(-c2cccnc2)n[nH]1)NCc1ccccc1 | 0.6014 | -13.06
COCC(NC1CSCCSC1)c1ccnn1C (centres undefined) | - | 16.08
Cc1nn(CCC#N)c(C)c1CCC(=O)N(C)C.Cl | -53.61 | -1.654
Cc1ccc(N2N=C(C(N)=O)S(=O)(=O)c3cccnc32)cc1 | 106.9 | 105.6
O=C(O)C(F)(F)F.[H][C@@]12CCN(CCOCc3ccccc3)C[C@@]1([H])[C@H](C(=O)N(C)C)CCO2 | - | -15.42
Cc1cccc2c1nc(CCO)n2-c1ccc(NS(C)(=O)=O)nc1 | 11.32 | 2.68
COC(=O)c1cccc(C(=O)N2CCN(c3ccc(OC)cc3)CC2)n1 | 45.06 | -17.36
CCCc1nc(Cn2c(=O)n(C)c3ccccc32)no1 | 14.32 | 21.23
NC(=O)c1cncc(-n2ccc(-c3cnccn3)n2)c1 | -22.22 | 11.04
O=C(N1CCCC1)N1Cc2nccn2CC(COc2cccnc2)C1.O=C(O)C(F)(F)F (centres undefined) | -18.14 | -15.21
CCN(Cc1cccc2c1OCO2)C(=O)Nc1ccncc1 | 7.156 | -0.6054
CN(C)C(=O)CNS(=O)(=O)c1cc(Br)ccc1F | -2.14 | -4.161
Cc1nn(C)c(C)c1CC(=O)N1CCCC(n2cccn2)C1 (centres undefined) | -22.48 | 13.68
CNc1ncccc1C(=O)N1CCN(C)C2(CCN(C)CC2)C1 | 31.16 | -35.82
CCN1CC2(CNCCN(C(=O)Nc3ccccc3)C2)CC1=O.O=C(O)C(F)(F)F (centres undefined) | - | -21
Cc1nc(N)sc1C(=O)N1CCC(C(O)Cc2ccccc2)CC1 (centres undefined) | - | 4.355
COc1ccnc(N2CCC3(CCCN(C(C)C)C3=O)C2)n1 (centres undefined) | 15.85 | 16.64
O=C(O)C(F)(F)F.[H][C@@]12OCCN(Cc3ccoc3)[C@@]1([H])CC[C@H]2OCC1CCOCC1 | 18.73 | 4.016
CC(C)c1ncc(CN2CCCC2c2[nH]ncc2C(=O)N(C)C)cn1 (centres undefined) | -22.16 | 7.672
[H][C@@]12CCN(C(=O)NCC)C[C@]1([H])CCN(CCN1CCNC1=O)C(=O)C2 | - | -2.968
COc1ccc(F)c(CNC2CCCc3nc(N(C)C)ncc32)c1 (centres undefined) | - | 4.304
CC(c1ccccc1)N(C)C(=O)CN1CCCc2cc(F)cc(F)c21 (centres undefined) | -29.14 | 29.98
CNC(=O)[C@@H](c1ccccc1OC)N1CCC[C@H]1C(=O)N1CC[C@@H](O)C1.Cl | 8.676 | 1.601
COC(=O)CC(NC(=O)CCn1cccn1)c1ccc(C)cc1 (centres undefined) | 19.7 | -18.99
CN(Cc1cc(-c2cccnc2)no1)C(=O)C1CCCN1S(C)(=O)=O (centres undefined) | 18.39 | 18.1
CS(=O)(=O)NC1CCN(C(=O)c2cc3ccccc3s2)C1 (centres undefined) | 21.32 | 0.7353
Cn1ncc2c1CN(Cc1ccccc1F)CC2COCC1CC1.O=C(O)C(F)(F)F.O=C(O)C(F)(F)F (centres undefined) | -46.68 | 103.1
Cc1ncsc1CCN(C)Cc1ccc(CO)o1 | 11.16 | 2.661
Cc1noc(C)c1CN1CCCC2(CCN(C(=O)N3CCOCC3)C2)C1 (centres undefined) | -19.35 | 2.206
Cc1nnn2c1COCC(CNCc1nccs1)C2.O=C(O)C(F)(F)F (centres undefined) | 15.12 | 15.9
CN(CCc1cnn(C)c1)C(=O)C1COc2ccccc2C1 (centres undefined) | - | 2.738
[H][C@]12CC[C@]([H])(CN(S(=O)(=O)c3cccnc3)C1)N(Cc1ccccn1)C2 | - | -15.9
CCN(C(=O)Cn1cc(NC(=O)C(C)(C)C)cn1)c1ccccc1 | 2.078 | -13.45

5 of the entries, repeated:

structure,Mtb growth Cornell,Mtb heat-shock
O=S(=O)(NCCc1nc(-c2cccnc2)n[nH]1)NCc1ccccc1,0.6014,-13.06
Cc1nc(NC(=O)NCc2nc3cccc(C)c3n2C)oc1C,-1.371,42.51
CN(Cc1noc(C2CC2)n1)C1CCN(CCc2cccs2)C1 (centres undefined),-,12.6
CCN(Cc1cccc2c1OCO2)C(=O)Nc1ccncc1,7.156,-0.6054
CCN(C(=O)Cn1cc(NC(=O)C(C)(C)C)cn1)c1ccccc1,2.078,-13.45

Source: ChEMBL document CHEMBL3988442, “University of Dundee, Small-Polar-MMV Screening Library” (2021).